Measurements taken from publication PMC11832210.
These are yes or no findings as the source states them, for the method shown. In cells and extracts the contact can be indirect. Some results given as binding are weak or reduced against the parent protein; the word gives no strength.

Protein sequences, listed by entry. Tags and fused reporters are not part of them.
UniProt Q9D8S3: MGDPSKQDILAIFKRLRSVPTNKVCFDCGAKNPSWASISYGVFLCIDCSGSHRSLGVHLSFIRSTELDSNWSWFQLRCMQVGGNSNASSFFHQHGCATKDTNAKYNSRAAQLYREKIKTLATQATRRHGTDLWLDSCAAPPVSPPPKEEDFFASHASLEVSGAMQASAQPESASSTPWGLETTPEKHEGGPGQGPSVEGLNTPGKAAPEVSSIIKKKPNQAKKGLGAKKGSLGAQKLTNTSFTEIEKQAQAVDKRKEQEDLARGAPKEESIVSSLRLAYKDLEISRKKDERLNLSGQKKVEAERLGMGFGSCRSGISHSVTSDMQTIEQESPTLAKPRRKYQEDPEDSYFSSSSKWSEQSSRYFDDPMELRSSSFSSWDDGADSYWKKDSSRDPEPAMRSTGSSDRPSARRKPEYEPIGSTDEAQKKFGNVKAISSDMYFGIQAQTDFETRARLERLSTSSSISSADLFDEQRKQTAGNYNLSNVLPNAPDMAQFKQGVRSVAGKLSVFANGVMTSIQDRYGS

Biological target: ADP ribosylation factor GTPase activating protein 3 (ArfGAP3) (mouse (endogenous in C2C12)) (UniProt Q9D8S3)
Assay: co-IP; antibody against ArfGAP3 on C2C12 myoblasts with or without 20 g/L D-gal treatment; products immunoblotted for ArfGAP3 and Rab5a

- binding: binds
B1: Rab5a (protein, UniProt Q9CQD1 1-215)
chain: MANRGATRPNGPNTGNKICQFKLVLLGESAVGKSSLVLRFVKGQFHEFQESTIGAAFLTQTVCLDDTTVKFEIWDTAGQERYHSLAPMYYRGAQAAIVVYDITNEESFARAKNWVKELQRQASPNIVIALSGNKADLANKRAVDFQEAQSYADDNSLLFMETSAKTSMNVNEIFMAIAKKLPKNEPQNPGANSARGRGVDLTEPAQPARSQCCSN
